According to paper PMC4476799, “Englerin A Agonizes the TRPC4/C5 Cation Channels to Inhibit Tumor Cell Line Proliferation” (PLoS ONE, 2015):
This continues a long series; more values of the same kind are listed elsewhere.

Tested on: cancer cell lines from the cancer cell line encyclopedia (CCLE)
Assay: Cell line profiling (CLiP) proliferation experiment
Type: cell-based
Set-up: ACTIVITY_AREA: scale not given here; AMAX: unit not given here
Experimental: Compound profiling experiment and data analysis was performed as previously described. Data was imported and plotted using the Tibco Spotfire DXP application. Lines were categorized as sensitive, intermediate and refractory as follows: Amax<-40 & Inflection Point <2 ~ Sensitive, Amax>-20 & Inflection Point >10 ~ Refractory, all else were called Intermediate. Cancer Cell line HG-U133 Plus 2 data was processed and normalized as described. […] Five sets of refractory cell lines were generated from the pool of refractory cell lines trying to match the lineage composition of the set of sensitive cell lines. The limma package was used as previously described to perform the statistical comparison.

[1] = cell line Loucy (haematopoietic_and_lymphoid_tissue, acute_lymphoblastic_T_cell_leukaemia)
[2] = cell line MC116 (haematopoietic_and_lymphoid_tissue, B_cell_lymphoma_unspecified)
[3] = cell line MCAS (ovary, mucinous_carcinoma)
[4] = cell line MDA-MB-231 (breast, NS)
[5] = cell line MDA-MB-453 (breast, NS)
[6] = cell line MEC-1 (haematopoietic_and_lymphoid_tissue, chronic_lymphocytic_leukaemia-small_lymphocytic_lymphoma)
[7] = cell line MFE-296 (endometrium)
[8] = cell line MHH-NB-11 (autonomic_ganglia)
[9] = cell line MIA PaCa-2 (pancreas)
[10] = cell line MJ (haematopoietic_and_lymphoid_tissue)
[11] = cell line MM1-S (haematopoietic_and_lymphoid_tissue)
[12] = cell line MOG-G-UVW (central_nervous_system)
[13] = cell line MOLM-13 (haematopoietic_and_lymphoid_tissue)
[14] = cell line MOLM-16 (haematopoietic_and_lymphoid_tissue)
[15] = cell line MOLP-8 (haematopoietic_and_lymphoid_tissue)
[16] = cell line MOLT-16 (haematopoietic_and_lymphoid_tissue)
[17] = cell line MOLT-16 (haematopoietic_and_lymphoid_tissue, acute_lymphoblastic_T_cell_leukaemia)
[18] = cell line MONO-MAC-1 (haematopoietic_and_lymphoid_tissue)
[19] = cell line MONO-MAC-6 (haematopoietic_and_lymphoid_tissue)
[20] = cell line MONO-MAC-6 (haematopoietic_and_lymphoid_tissue, acute_myeloid_leukaemia)

## CC(C)[C@@]12C[C@@H](O)[C@@](C)(O1)[C@@H]1CC[C@@H](C)[C@H]1[C@@H]2OC(=O)/C=C/c1ccccc1 [Englerin B]
Cell line IGR-39
  AMAX: -36.52
  RESPONSE: INTERMEDIATE
Cell line IGR-39, skin
  ACTIVITY_AREA: 70.27
  AMAX: -36.52
  RESPONSE: INTERMEDIATE
Cell line IGROV1, ovary
  ACTIVITY_AREA: 38.35
  AMAX: -25.23
  RESPONSE: INTERMEDIATE
Cell line IPC-298
  ACTIVITY_AREA: 31.6
  AMAX: -31.36
  RESPONSE: INTERMEDIATE
Cell line J82
  ACTIVITY_AREA: 6.63
  AMAX: -28.14
  RESPONSE: INTERMEDIATE
Cell line JHH-2
  ACTIVITY_AREA: 49.18
  AMAX: -46.72
  RESPONSE: INTERMEDIATE
Cell line JHOM-1
  ACTIVITY_AREA: 17.33
  AMAX: -51.79
  RESPONSE: INTERMEDIATE
Cell line JJN-3
  ACTIVITY_AREA: 16.87
  AMAX: -1.17
  RESPONSE: REFRACTORY
Cell line JURKAT
  ACTIVITY_AREA: 72.2
  AMAX: -83.41
  RESPONSE: INTERMEDIATE
Cell line JVM-3
  ACTIVITY_AREA: 18.3
  AMAX: 3.55
  RESPONSE: REFRACTORY
Cell line K-562
  ACTIVITY_AREA: 49.17
  AMAX: -49.05
  RESPONSE: INTERMEDIATE
Cell line KARPAS-299
  ACTIVITY_AREA: 51.51
  AMAX: -86.39
  RESPONSE: INTERMEDIATE
Cell line KARPAS-620
  ACTIVITY_AREA: 32.66
  AMAX: -70.61
  RESPONSE: INTERMEDIATE
Cell line KATO III
  ACTIVITY_AREA: 50.08
  AMAX: -60.06
  RESPONSE: INTERMEDIATE
Cell line KELLY
  ACTIVITY_AREA: 53.88
  AMAX: -99.41
  RESPONSE: INTERMEDIATE
Cell line KLE
  ACTIVITY_AREA: 36.8
  AMAX: -42.78
  RESPONSE: INTERMEDIATE
Cell line KMS-28BM
  ACTIVITY_AREA: 29.69
  AMAX: -50.99
  RESPONSE: INTERMEDIATE
Cell line KP-N-SI9s
  ACTIVITY_AREA: 39.08
  AMAX: -59.99
  RESPONSE: INTERMEDIATE
Cell line KYSE-270
  ACTIVITY_AREA: 78.27
  AMAX: -38.17
  RESPONSE: INTERMEDIATE
[1]
  ACTIVITY_AREA: 40.46
  AMAX: -77.08
  RESPONSE: INTERMEDIATE
[2]
  ACTIVITY_AREA: 38.31
  AMAX: -98.12
  RESPONSE: INTERMEDIATE
[3]
  ACTIVITY_AREA: 25.17
  AMAX: -38.75
  RESPONSE: INTERMEDIATE
[4]
  ACTIVITY_AREA: 47.93
  AMAX: -44.39
  RESPONSE: INTERMEDIATE
[5]
  ACTIVITY_AREA: 54.06
  AMAX: -63.93
  RESPONSE: INTERMEDIATE
[6]
  ACTIVITY_AREA: 41.33
  AMAX: -58.42
  RESPONSE: INTERMEDIATE
Cell line MEL-HO
  ACTIVITY_AREA: 73.24
  AMAX: -36.18
  RESPONSE: INTERMEDIATE
Cell line MEL-HO (skin)
  ACTIVITY_AREA: 73.24
  AMAX: -36.18
  RESPONSE: INTERMEDIATE
Cell line MEL-JUSO (skin)
  ACTIVITY_AREA: 85.15
  AMAX: -17.8
  RESPONSE: REFRACTORY
[7]
  ACTIVITY_AREA: 30.54
  AMAX: -63.15
  RESPONSE: INTERMEDIATE
Cell line MG-63
  ACTIVITY_AREA: 49.07
  AMAX: -25.48
  RESPONSE: INTERMEDIATE
Cell line MG-63 (bone)
  ACTIVITY_AREA: 49.07
  AMAX: -25.48
  RESPONSE: INTERMEDIATE
Cell line MHH-NB-11
  ACTIVITY_AREA: 20.68
  AMAX: -56.69
  RESPONSE: INTERMEDIATE
[8]
  ACTIVITY_AREA: 20.68
  AMAX: -56.69
  RESPONSE: INTERMEDIATE
[9]
  ACTIVITY_AREA: 21.84
  AMAX: -45.2
  RESPONSE: INTERMEDIATE
Cell line MJ
  ACTIVITY_AREA: 86.63
  AMAX: -80.66
  RESPONSE: INTERMEDIATE
[10]
  ACTIVITY_AREA: 86.63
  AMAX: -80.66
  RESPONSE: INTERMEDIATE
Cell line MKN1
  ACTIVITY_AREA: 40.95
  AMAX: 0.87
  RESPONSE: REFRACTORY
Cell line MKN1 (stomach)
  ACTIVITY_AREA: 40.95
  AMAX: 0.87
  RESPONSE: REFRACTORY
Cell line MKN7 (stomach)
  ACTIVITY_AREA: 17.73
  AMAX: -33.53
  RESPONSE: INTERMEDIATE
Cell line MKN74
  ACTIVITY_AREA: 17.11
  AMAX: -54.6
  RESPONSE: INTERMEDIATE
Cell line MKN74 (stomach)
  ACTIVITY_AREA: 17.11
  AMAX: -54.6
  RESPONSE: INTERMEDIATE
Cell line MKN-45 (stomach)
  ACTIVITY_AREA: 62.13
  AMAX: -32.27
  RESPONSE: INTERMEDIATE
Cell line MM1-S
  ACTIVITY_AREA: 20.99
  AMAX: -39.73
  RESPONSE: INTERMEDIATE
[11]
  ACTIVITY_AREA: 20.99
  AMAX: -39.73
  RESPONSE: INTERMEDIATE
Cell line MOG-G-UVW
  ACTIVITY_AREA: 10.19
  AMAX: -24.06
  RESPONSE: INTERMEDIATE
[12]
  ACTIVITY_AREA: 10.19
  AMAX: -24.06
  RESPONSE: INTERMEDIATE
[13]
  ACTIVITY_AREA: 49.89
  AMAX: -90.98
  RESPONSE: INTERMEDIATE
Cell line MOLM-16
  ACTIVITY_AREA: 75.11
  AMAX: -81.93
  RESPONSE: INTERMEDIATE
[14]
  ACTIVITY_AREA: 75.11
  AMAX: -81.93
  RESPONSE: INTERMEDIATE
Cell line MOLP-8
  ACTIVITY_AREA: 20.53
  AMAX: -60.07
  RESPONSE: INTERMEDIATE
[15]
  ACTIVITY_AREA: 20.53
  AMAX: -60.07
  RESPONSE: INTERMEDIATE
[16]
  ACTIVITY_AREA: 14.74
  AMAX: -74.95
  RESPONSE: INTERMEDIATE
[17]
  ACTIVITY_AREA: 14.74
  AMAX: -74.95
  RESPONSE: INTERMEDIATE
Cell line MONO-MAC-1
  ACTIVITY_AREA: 27.45
  AMAX: -73.86
  RESPONSE: INTERMEDIATE
[18]
  ACTIVITY_AREA: 27.45
  AMAX: -73.86
  RESPONSE: INTERMEDIATE
[19]
  ACTIVITY_AREA: 35.17
  AMAX: -68.18
  RESPONSE: INTERMEDIATE
[20]
  ACTIVITY_AREA: 35.17
  AMAX: -68.18
  RESPONSE: INTERMEDIATE
Cell line MOR/CPR
  ACTIVITY_AREA: 20.21
  AMAX: -50.6
